Source: the supplement of paper PMC12889115
The other results are listed elsewhere or left out. Values are raw readings; no control value is given beside them.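 Primary screen: polymyxin B was added at a level permeabilizing Salmonella outer membranes while sparing inner membranes. DMSO wells, both with and without polymyxin B, established maximum growth. Plate-to-plate variation meant each plate was ranked on its own, and the lowest-OD600 compounds were selected as hits.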

Test system: Salmonella enterica serovar Typhimurium SL1344
Assay: bacterial growth OD600 after 18 h with compound and polymyxin B; higher = more bacterial growth (less inhibition)
Details: 50 µM, Mueller-Hinton broth

SMILES | bacterial growth OD600 (polymyxin B 0.75 µg/mL) | bacterial growth OD600 (polymyxin B 1 µg/mL)
Cc1c(CNCC2(O)CCCN(CC3CCCCC3)C2=O)cnn1C (stereo not given) | 0.926 | –
O=C1N(Cc2ccc(F)c(F)c2)CCCC1(O)CNCc1ccccc1 (stereo not given) | – | 0.923
OCc1ccc(CN2CCc3onc(C(c4ccccc4)c4ccccc4)c3C2)o1 | 0.632 | –
Cc1noc(C)c1CC(=O)NC1CC(=O)N(CC2CCCCC2)C1 (stereo not given) | – | 0.922
CSCCC(=O)N1CCCC1C(=O)Nc1cccc(-n2cccn2)c1 (stereo not given) | – | 1
CN(C)c1ncc2c(n1)CCCC2NC(=O)CCc1cnn(C)c1 (stereo not given) | – | 0.969
O=C(c1cscn1)N1CCC2(CCCN(Cc3ccc(F)cc3)C2=O)C1 (stereo not given) | – | 0.923
COc1cccc(CN2CCC(C(=O)Nc3ccccc3-c3cccc(OC)c3)CC2)c1 | – | 0.005
COc1ccc2ccc(OCc3nc(C(=O)NC4CCC4)co3)cc2c1 | – | 0.883
Cc1ccc(CNC(=O)c2coc(COc3ccccc3F)n2)s1 | 0.543 | –
CN1CCC(N(C)C(=O)CCC2CCCN(Cc3ccc(C#CC(C)(C)O)cc3)C2)CC1 (stereo not given) | 0.794 | –
O=C(c1ccc(N2CCC(NCc3scnc3-c3ccccc3)CC2)cc1)N1CCOCC1 | 0.792 | –
C#Cc1cccc(C(=O)N2CCc3onc(-c4cccc(F)c4)c3C2)c1 | -0.001 | –
CCCN(CC1CC1)C(=O)c1cn(CCc2ccccn2)cc(C(=O)NCc2ccc(C)cc2)c1=O | 0.892 | –
Cc1cc(C(=O)NCC2CCCN(S(=O)(=O)/C=C/c3ccccc3)C2)no1 (stereo not given) | 0.15 | –
O=C(c1ccc(Cn2cnnn2)cc1)N1CCCC(CCc2ccccc2)C1 (stereo not given) | 0.003 | –
COc1cccc(CC2(CO)CCCN(Cc3cc4ccccc4o3)C2)c1 (stereo not given) | – | 1.04
COc1c(C)cc(C(=O)C2CCCN(Cc3nc4ccccc4n3C)C2)cc1C (stereo not given) | – | 0.015
CC(C)N(C)CC1(O)CCCN(CCC2CCCCC2)C1=O (stereo not given) | 0.825 | –
CCOC(=O)N1CCC(NC2CCN(c3ccc(NC(=O)c4ccccc4F)cc3)CC2)CC1 | 0.797 | –

Reprinted at random: two compounds from above, in no set order.
SMILES | bacterial growth OD600 (polymyxin B 0.75 µg/mL) | bacterial growth OD600 (polymyxin B 1 µg/mL)
OCc1ccc(CN2CCc3onc(C(c4ccccc4)c4ccccc4)c3C2)o1 | 0.632 | –
O=C(c1cscn1)N1CCC2(CCCN(Cc3ccc(F)cc3)C2=O)C1 (stereo not given) | – | 0.923
